Paper PMC7819943, “Rice protein-binding microarrays: a tool to detect cis-acting elements near promoter regions in rice”
This is one part of the list.

Each sequence was assayed against T1, OsSMF1 (Oryza sativa, UniProt Q6ZLB0 1-436) (assay: protein-binding microarray (RPBM); PBS, 2% BSA, 51.3 ng/ul salmon testes DNA, 50 uM zinc acetate, 200 nM TF, 25 C, 1 h; high values mean tight binding). Conditions: protein: recombinant; tags: N-terminal polyhistidine and DsRed monomer fusion (pET32a); chain copies: 2; label: CyDye5-dUTP incorporated in the synthesized complementary strand; 3' TTTTT single-stranded linker to array surface; dsDNA, one strand shown.
T1 sequence: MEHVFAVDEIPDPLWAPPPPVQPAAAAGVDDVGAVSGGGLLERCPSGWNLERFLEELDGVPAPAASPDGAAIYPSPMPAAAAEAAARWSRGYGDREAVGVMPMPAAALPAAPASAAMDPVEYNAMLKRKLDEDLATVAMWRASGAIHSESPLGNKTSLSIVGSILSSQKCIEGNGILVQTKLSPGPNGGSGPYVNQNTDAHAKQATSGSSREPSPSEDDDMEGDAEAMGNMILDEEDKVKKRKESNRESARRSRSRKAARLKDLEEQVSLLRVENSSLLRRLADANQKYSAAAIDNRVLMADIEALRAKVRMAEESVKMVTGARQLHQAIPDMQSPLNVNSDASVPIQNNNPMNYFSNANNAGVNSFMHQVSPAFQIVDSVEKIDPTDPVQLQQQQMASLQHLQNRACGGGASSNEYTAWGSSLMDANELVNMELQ
Procedure, shortened: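 In PBS with 2% BSA, salmon testes DNA and 50 µM zinc acetate, 200 nM protein was incubated on a custom Agilent array at 25 °C for 1 h and then washed off. The array had been made double-stranded by primer extension with Cy5-dUTP and blocked with 2% BSA. The proteins were transcription factors fused N-terminally to polyhistidine and DsRed, expressed in E. coli BL21-CodonPlus and purified on Ni–NTA. The binding signal is per-feature fluorescence intensity (arbitrary units) from an Axon 4000B scanner.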

Sequence | binding signal
TTCCGCATCTTGAGCTGAGCAGAGCACAGCTTGTACCTGCCGGAGTCACCTAGTGCAG | 3300 fluorescence intensity (a.u.)
TATTTTAGGACGGGGAGTAATATACAGTCACGCTTAACTGCGGAGTCACCTAGTGCAG | 6870 fluorescence intensity (a.u.)
GACTGACACATCAGTCAAAACCACCATCGAAATCGCTGAGCGGAGTCACCTAGTGCAG | 5300 fluorescence intensity (a.u.)
CACAAACCGTCCAAACCGCTGACTCCTTGTTGCCTGCTCGCGGAGTCACCTAGTGCAG | 4620 fluorescence intensity (a.u.)
GGAAGTTCTGAGTCAGGCCCCATCATCTCATTGCTGTCTACGGAGTCACCTAGTGCAG | 5890 fluorescence intensity (a.u.)
GTAAGCAGTGACAGAAGCCGTCGTCCCTCCACGCGTCGCGCGGAGTCACCTAGTGCAG | 3780 fluorescence intensity (a.u.)
CAAAGTCGCAAGTCCGCAACGCGACTGTGCACACGAGGCCCGGAGTCACCTAGTGCAG | 3200 fluorescence intensity (a.u.)
CTAATAGTTCCATCTACGTACCCAACCTTAATAACGGGCCCGGAGTCACCTAGTGCAG | 36200 fluorescence intensity (a.u.)
CGTCAGATCTCTCCATTTCTCTCCACGTGGCGTCGAGAGGCGGAGTCACCTAGTGCAG | 10400 fluorescence intensity (a.u.)
GTGCGCGCCACCGCGGACACGTCCCGCCCCGCCGCGCACTCGGAGTCACCTAGTGCAG | 3660 fluorescence intensity (a.u.)
CAAATCCGGTGGTCCGCCGCGTCGTCCTCCAGTCCCAGTCCGGAGTCACCTAGTGCAG | 4130 fluorescence intensity (a.u.)
GATGCATATGAGCCTGTGATATAGTTACATTGACATGTGCCGGAGTCACCTAGTGCAG | 27800 fluorescence intensity (a.u.)
CCGGGCAGTGAAGCATGCAGTGTGTGACGCGGGACTCCGGCGGAGTCACCTAGTGCAG | 3370 fluorescence intensity (a.u.)
CTCTCTCCTCGTCTTCCTCGCGCTGACTCTTCTCCTCCTCCGGAGTCACCTAGTGCAG | 3180 fluorescence intensity (a.u.)
GATGATGATGAGGAGGATGACCAGGATGGTGGAGACTGGGCGGAGTCACCTAGTGCAG | 3250 fluorescence intensity (a.u.)
CTTATATAATATAAAATGGAAGAAGTATTTTAATACCTTTCGGAGTCACCTAGTGCAG | 28000 fluorescence intensity (a.u.)
CTGTTGCGTGCTACCAGTTCAGGATCGTCGACACGTGGAGCGGAGTCACCTAGTGCAG | 10500 fluorescence intensity (a.u.)
TAGTAGAGTATGTGTACAGAGCATGCTATTATATGCACTGCGGAGTCACCTAGTGCAG | 29700 fluorescence intensity (a.u.)
TTAAAAGATTCATCTCGCAATTTACACGTAATCTGTGTAACGGAGTCACCTAGTGCAG | 6860 fluorescence intensity (a.u.)
TCCTCTTCTGTATTTCTGGTGCGAGTTCTATCTCGCACTACGGAGTCACCTAGTGCAG | 3560 fluorescence intensity (a.u.)
ACCAAGCCCTAGTCCCCGCCACGCCACCGTCCGCCGGCCGCGGAGTCACCTAGTGCAG | 8250 fluorescence intensity (a.u.)

A section from further up:
Sequence | binding signal
TTCCGCATCTTGAGCTGAGCAGAGCACAGCTTGTACCTGCCGGAGTCACCTAGTGCAG | 3300 fluorescence intensity (a.u.)
TATTTTAGGACGGGGAGTAATATACAGTCACGCTTAACTGCGGAGTCACCTAGTGCAG | 6870 fluorescence intensity (a.u.)
GACTGACACATCAGTCAAAACCACCATCGAAATCGCTGAGCGGAGTCACCTAGTGCAG | 5300 fluorescence intensity (a.u.)
CACAAACCGTCCAAACCGCTGACTCCTTGTTGCCTGCTCGCGGAGTCACCTAGTGCAG | 4620 fluorescence intensity (a.u.)
GGAAGTTCTGAGTCAGGCCCCATCATCTCATTGCTGTCTACGGAGTCACCTAGTGCAG | 5890 fluorescence intensity (a.u.)
GTAAGCAGTGACAGAAGCCGTCGTCCCTCCACGCGTCGCGCGGAGTCACCTAGTGCAG | 3780 fluorescence intensity (a.u.)
CAAAGTCGCAAGTCCGCAACGCGACTGTGCACACGAGGCCCGGAGTCACCTAGTGCAG | 3200 fluorescence intensity (a.u.)
CTAATAGTTCCATCTACGTACCCAACCTTAATAACGGGCCCGGAGTCACCTAGTGCAG | 36200 fluorescence intensity (a.u.)

Next part.

Sequence | binding signal
GTGAACATCAGCATGCTCATCATCGGCCGCATCCTCCTCGCGGAGTCACCTAGTGCAG | 3180 fluorescence intensity (a.u.)
GTGGTAGTGGTGGCTCAATGACGAGGAGGGGCGGCGAGAGCGGAGTCACCTAGTGCAG | 4660 fluorescence intensity (a.u.)
CCAACAGTGCTGTTGTCGCCACGCTCTTTGTGTTGCTGCCCGGAGTCACCTAGTGCAG | 3480 fluorescence intensity (a.u.)
GCGCGCGCGCGCGGGCATAGGCGACGCCGCGACGGTGCGGCGGAGTCACCTAGTGCAG | 3890 fluorescence intensity (a.u.)
CTAATAGCAAATAAGTTTGGTTCTAGCGGTAAAATGGTCACGGAGTCACCTAGTGCAG | 3290 fluorescence intensity (a.u.)
TCCGGTTGTTTGCCGTGGCACTTCCTTTCTCCCTATTGGCCGGAGTCACCTAGTGCAG | 5380 fluorescence intensity (a.u.)
CGTCGGCGGGGCCGATGGAGCTGGTGGCGGCGCTGCTGCGCGGAGTCACCTAGTGCAG | 23100 fluorescence intensity (a.u.)
GTGTGAAAAGATGCTGGCCCAATTAATTTGCGCGCGTCATCGGAGTCACCTAGTGCAG | 48700 fluorescence intensity (a.u.)
CAAGTACCCAACCCGCGTCGTCATCGTCGTCTTCCTACTTCGGAGTCACCTAGTGCAG | 5510 fluorescence intensity (a.u.)
AGCTAGGCGACGACACCGTCACACCGTCCCCGGTTGGCCGCGGAGTCACCTAGTGCAG | 4530 fluorescence intensity (a.u.)
GAGAAAGAGGGAGGGTGATGATGTGGATCACCCTAACATGCGGAGTCACCTAGTGCAG | 5450 fluorescence intensity (a.u.)
GGCGTTCCTGCCCAACCCAGCCCTGTTGCCATCCCTACGACGGAGTCACCTAGTGCAG | 3210 fluorescence intensity (a.u.)
TGAAGATGGGCTCCTGGCCACTCCAGCGCGACTGACCAGGCGGAGTCACCTAGTGCAG | 4020 fluorescence intensity (a.u.)
CCCTCTTTTCTCTCACCTCCACGTAACCCCTCTCGCCTTCCGGAGTCACCTAGTGCAG | 8640 fluorescence intensity (a.u.)
AACCCCACGTGTACGTTTCCTCGGGTGCACGTAGCGGATGCGGAGTCACCTAGTGCAG | 6050 fluorescence intensity (a.u.)
CTTAGCTAGGTCGATCGATCACACGTACGTGCGCGTGCATCGGAGTCACCTAGTGCAG | 4880 fluorescence intensity (a.u.)
AGTATGTCTAGGGGTATTTTAGATATTTCCCATCTCTCTCCGGAGTCACCTAGTGCAG | 3280 fluorescence intensity (a.u.)
TTTCAGCACTTCTAGATGGCCTAGTCAGCTCTGGGCTGAACGGAGTCACCTAGTGCAG | 5440 fluorescence intensity (a.u.)
CCTCGTCGTGCGCGTCCTTGGCCAGGGACGCTGACGCTGCCGGAGTCACCTAGTGCAG | 4990 fluorescence intensity (a.u.)
TCCAGCAAGCAGGCAAAGCAAGCAGCGAGCCAGCTACTGACGGAGTCACCTAGTGCAG | 23000 fluorescence intensity (a.u.)
GCAGAGCTGCAGTCCAACAACCATACACCTCATGTGCCGTCGGAGTCACCTAGTGCAG | 3370 fluorescence intensity (a.u.)
